Laboratory results reported in article PMC9012282.
These are yes or no findings as the source states them, for the method shown. In cells and extracts the contact can be indirect. Some binding calls cover weakened binding; strength is not graded here.

By UniProt entry, the sequences of proteins in these tests, tags left out.
UniProt Q86WI3: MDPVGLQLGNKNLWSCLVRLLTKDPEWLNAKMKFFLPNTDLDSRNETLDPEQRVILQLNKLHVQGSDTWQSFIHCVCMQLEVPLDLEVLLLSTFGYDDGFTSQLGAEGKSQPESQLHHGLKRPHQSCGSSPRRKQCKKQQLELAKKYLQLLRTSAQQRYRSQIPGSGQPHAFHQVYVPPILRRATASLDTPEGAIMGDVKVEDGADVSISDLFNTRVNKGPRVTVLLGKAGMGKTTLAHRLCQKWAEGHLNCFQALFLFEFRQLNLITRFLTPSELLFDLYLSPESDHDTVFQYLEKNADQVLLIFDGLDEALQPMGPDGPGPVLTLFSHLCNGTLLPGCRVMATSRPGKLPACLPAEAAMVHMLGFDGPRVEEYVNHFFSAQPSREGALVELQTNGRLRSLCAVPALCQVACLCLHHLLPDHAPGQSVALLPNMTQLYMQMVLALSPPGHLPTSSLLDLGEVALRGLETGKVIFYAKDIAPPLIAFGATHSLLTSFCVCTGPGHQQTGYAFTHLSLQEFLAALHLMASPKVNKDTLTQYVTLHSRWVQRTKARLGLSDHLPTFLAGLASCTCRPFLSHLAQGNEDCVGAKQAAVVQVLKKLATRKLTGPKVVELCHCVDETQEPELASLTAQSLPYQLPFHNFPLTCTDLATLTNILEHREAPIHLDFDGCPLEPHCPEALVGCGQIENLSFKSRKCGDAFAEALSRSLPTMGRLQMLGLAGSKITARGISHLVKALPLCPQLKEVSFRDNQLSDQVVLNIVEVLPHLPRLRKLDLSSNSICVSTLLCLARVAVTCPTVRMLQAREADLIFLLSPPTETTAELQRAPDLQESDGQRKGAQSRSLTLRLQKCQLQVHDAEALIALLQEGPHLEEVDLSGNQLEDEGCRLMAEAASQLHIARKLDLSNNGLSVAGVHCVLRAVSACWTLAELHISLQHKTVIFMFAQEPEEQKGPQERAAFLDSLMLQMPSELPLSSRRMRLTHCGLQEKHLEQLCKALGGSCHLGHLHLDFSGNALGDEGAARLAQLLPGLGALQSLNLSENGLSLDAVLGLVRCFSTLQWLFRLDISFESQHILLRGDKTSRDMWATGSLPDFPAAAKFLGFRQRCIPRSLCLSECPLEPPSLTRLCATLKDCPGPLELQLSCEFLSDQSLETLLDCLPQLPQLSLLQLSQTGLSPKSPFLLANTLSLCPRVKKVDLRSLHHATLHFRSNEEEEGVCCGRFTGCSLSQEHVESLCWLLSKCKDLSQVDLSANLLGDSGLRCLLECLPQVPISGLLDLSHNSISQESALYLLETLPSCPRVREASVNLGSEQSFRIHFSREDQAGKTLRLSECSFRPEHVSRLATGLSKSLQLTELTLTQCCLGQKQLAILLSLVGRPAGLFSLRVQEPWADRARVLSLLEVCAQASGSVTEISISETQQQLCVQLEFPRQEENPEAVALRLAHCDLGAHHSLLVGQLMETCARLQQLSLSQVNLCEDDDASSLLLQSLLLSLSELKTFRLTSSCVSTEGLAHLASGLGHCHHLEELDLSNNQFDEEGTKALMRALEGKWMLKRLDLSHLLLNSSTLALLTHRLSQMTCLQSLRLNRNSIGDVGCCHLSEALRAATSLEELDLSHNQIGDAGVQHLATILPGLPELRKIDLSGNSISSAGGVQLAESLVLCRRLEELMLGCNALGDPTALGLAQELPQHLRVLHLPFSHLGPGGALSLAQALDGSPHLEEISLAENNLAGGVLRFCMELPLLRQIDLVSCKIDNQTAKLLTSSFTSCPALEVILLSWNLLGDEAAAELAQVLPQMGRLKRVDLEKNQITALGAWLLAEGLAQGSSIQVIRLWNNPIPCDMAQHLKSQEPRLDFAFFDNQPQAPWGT
UniProt O96028: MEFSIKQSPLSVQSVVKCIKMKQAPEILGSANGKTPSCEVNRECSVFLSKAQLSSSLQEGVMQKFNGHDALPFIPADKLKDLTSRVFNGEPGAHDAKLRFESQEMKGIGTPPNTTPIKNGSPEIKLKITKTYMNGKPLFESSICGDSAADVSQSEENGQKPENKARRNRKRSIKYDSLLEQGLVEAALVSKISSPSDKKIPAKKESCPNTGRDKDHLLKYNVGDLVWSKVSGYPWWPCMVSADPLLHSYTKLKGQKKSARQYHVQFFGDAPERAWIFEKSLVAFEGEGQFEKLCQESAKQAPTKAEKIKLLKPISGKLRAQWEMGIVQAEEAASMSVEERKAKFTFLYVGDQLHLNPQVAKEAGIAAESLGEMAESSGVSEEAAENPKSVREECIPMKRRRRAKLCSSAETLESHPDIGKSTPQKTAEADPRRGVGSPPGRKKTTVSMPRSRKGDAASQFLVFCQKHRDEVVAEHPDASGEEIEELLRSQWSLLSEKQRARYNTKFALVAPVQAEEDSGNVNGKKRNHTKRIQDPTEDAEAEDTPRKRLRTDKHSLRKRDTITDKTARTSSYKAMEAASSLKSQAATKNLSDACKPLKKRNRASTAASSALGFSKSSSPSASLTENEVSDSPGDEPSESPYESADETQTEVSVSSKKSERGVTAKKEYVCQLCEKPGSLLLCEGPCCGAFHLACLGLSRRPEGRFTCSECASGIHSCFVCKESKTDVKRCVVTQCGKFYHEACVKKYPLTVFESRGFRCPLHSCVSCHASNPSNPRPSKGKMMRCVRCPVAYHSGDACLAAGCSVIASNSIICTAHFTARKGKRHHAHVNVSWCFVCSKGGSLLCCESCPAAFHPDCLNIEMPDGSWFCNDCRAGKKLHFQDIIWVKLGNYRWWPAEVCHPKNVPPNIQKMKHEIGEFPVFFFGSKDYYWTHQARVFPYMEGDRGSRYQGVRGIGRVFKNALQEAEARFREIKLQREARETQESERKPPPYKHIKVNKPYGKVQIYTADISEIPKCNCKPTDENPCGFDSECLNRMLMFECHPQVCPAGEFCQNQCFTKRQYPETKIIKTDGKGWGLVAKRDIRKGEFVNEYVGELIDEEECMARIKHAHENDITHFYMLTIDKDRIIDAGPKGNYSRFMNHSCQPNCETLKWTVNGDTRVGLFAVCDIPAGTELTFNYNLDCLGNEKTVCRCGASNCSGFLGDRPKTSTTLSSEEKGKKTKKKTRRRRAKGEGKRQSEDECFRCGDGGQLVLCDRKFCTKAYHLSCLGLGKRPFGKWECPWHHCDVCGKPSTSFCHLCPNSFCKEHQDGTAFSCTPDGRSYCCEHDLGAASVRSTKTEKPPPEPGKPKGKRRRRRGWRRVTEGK

Columns and labels:
[1] = molecular target: NLRC5 of the in vitro binding assay (UniProt Q86WI3); assay: pull-down; in vitro binding assay (Supplemental Figure 4E); the methods name GST pull-down assays, details in the Supplemental Methods
[2] = molecular target: T1, IFN regulatory factor 1 (IRF-1), in 293T cells (UniProt P10914); assay: co-IP; exogenous WHSC1 in 293T cells; immunoblot of 293T cell immunoprecipitates
T1 sequence: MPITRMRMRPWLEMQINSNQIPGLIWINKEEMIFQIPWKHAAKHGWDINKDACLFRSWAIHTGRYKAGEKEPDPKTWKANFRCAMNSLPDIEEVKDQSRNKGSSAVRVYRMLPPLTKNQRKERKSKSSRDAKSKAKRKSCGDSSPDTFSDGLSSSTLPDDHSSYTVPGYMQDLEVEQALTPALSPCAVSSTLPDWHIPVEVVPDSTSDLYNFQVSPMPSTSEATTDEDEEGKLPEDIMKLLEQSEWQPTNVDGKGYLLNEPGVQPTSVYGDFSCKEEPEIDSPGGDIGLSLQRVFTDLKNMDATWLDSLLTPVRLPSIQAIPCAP

[3] = molecular target: NOD-like receptor (NLR) family, caspase recruitment domain-containing 5 (NLRC5), in 293T cells (UniProt Q86WI3); assay: as above

| binding [1] | binding [2] | binding [3] | Substance |
| --- | --- | --- | --- |
| binds |  |  | WHSC1 of the in vitro binding assay (from UniProt O96028 1-1365) |
|  | no binding | binds | Wolf-Hirschhorn syndrome candidate 1 (WHSC1), exogenous (from UniProt O96028 1-1365) |
